Results: article PMC5437018
Results are given in words; binding and its absence hold for the method and conditions named. In cells and extracts the contact can be indirect. Here binding means that the protein was enriched with, or labelled near, the bait; the list need not be complete. A no says only that the protein was not detected with the bait.

Chains of the proteins cited; added tags and fusions are not shown.
UniProt Q6PR54: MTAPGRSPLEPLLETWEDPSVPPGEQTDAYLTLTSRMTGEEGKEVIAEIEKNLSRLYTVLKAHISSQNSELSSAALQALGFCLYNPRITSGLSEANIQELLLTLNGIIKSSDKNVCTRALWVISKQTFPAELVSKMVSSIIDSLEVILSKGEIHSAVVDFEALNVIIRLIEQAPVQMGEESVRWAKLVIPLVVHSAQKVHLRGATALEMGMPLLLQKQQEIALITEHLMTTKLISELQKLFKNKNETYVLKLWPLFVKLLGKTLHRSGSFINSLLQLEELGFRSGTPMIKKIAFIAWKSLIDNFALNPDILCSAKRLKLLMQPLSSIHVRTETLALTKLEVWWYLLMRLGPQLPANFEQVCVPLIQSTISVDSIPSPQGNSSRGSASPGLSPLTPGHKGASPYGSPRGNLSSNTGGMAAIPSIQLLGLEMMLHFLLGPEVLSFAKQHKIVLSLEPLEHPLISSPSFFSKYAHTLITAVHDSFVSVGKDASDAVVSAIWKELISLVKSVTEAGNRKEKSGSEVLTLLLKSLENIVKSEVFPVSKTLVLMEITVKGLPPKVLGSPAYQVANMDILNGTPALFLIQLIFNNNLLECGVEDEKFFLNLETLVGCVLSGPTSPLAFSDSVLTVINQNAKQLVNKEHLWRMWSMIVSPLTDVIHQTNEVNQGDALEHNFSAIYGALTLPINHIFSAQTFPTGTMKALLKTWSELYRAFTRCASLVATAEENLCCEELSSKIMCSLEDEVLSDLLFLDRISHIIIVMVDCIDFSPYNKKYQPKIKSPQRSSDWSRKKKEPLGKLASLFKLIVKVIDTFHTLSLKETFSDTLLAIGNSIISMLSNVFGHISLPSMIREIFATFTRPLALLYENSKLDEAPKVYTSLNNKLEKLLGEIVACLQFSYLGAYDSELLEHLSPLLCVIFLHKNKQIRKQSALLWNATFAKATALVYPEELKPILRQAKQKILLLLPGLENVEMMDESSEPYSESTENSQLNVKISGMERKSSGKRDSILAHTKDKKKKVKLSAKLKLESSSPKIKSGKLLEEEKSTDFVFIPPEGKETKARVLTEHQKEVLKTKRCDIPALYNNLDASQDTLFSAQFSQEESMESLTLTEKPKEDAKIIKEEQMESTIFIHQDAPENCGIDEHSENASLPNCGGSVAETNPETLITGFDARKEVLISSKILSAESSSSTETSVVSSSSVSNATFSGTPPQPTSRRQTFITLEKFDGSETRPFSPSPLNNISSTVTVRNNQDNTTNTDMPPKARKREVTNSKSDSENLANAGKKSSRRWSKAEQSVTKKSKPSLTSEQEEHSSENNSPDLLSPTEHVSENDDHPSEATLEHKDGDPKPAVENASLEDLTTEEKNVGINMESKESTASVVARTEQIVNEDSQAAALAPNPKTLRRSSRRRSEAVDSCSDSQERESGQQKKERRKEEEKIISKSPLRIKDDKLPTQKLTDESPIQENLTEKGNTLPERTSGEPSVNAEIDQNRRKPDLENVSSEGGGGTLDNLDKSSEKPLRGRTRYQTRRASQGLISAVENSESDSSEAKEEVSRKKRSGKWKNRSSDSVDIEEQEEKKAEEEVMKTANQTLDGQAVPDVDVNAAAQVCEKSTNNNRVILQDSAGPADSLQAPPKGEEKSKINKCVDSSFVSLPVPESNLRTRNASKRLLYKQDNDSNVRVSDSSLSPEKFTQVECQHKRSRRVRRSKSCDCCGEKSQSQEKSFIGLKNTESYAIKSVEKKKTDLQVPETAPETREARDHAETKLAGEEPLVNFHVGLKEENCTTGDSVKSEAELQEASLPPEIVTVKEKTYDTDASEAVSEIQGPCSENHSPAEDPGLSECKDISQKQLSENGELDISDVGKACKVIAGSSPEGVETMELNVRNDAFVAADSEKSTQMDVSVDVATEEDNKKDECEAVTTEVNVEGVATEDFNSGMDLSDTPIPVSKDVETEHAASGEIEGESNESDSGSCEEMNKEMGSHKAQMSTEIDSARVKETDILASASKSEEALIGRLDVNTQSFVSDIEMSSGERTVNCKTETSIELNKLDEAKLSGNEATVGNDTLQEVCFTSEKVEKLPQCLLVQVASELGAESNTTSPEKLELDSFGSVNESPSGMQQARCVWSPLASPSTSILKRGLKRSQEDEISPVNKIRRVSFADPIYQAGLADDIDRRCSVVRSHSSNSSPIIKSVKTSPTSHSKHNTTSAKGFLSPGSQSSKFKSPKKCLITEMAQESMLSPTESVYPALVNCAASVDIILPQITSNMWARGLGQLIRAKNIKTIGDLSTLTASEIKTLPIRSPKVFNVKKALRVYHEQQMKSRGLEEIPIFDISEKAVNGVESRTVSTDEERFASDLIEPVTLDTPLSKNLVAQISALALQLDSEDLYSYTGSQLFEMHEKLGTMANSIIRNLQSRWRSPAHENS
UniProt O88685: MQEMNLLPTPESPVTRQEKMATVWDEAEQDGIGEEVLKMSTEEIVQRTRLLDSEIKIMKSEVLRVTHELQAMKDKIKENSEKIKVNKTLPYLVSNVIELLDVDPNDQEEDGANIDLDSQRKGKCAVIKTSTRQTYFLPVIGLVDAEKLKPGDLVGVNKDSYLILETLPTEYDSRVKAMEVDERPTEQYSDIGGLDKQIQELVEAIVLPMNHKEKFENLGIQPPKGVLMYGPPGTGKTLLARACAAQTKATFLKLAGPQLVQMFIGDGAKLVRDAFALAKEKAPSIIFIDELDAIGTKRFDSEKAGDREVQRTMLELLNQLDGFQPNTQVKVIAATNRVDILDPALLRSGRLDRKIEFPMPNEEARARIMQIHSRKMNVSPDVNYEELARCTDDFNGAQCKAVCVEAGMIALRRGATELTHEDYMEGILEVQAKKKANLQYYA
UniProt P43346: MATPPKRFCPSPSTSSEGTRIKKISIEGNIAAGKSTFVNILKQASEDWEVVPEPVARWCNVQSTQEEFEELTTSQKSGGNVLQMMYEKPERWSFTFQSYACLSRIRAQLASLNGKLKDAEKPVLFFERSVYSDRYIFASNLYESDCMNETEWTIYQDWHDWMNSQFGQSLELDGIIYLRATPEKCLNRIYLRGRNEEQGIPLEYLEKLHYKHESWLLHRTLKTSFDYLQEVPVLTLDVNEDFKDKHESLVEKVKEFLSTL
UniProt P60229: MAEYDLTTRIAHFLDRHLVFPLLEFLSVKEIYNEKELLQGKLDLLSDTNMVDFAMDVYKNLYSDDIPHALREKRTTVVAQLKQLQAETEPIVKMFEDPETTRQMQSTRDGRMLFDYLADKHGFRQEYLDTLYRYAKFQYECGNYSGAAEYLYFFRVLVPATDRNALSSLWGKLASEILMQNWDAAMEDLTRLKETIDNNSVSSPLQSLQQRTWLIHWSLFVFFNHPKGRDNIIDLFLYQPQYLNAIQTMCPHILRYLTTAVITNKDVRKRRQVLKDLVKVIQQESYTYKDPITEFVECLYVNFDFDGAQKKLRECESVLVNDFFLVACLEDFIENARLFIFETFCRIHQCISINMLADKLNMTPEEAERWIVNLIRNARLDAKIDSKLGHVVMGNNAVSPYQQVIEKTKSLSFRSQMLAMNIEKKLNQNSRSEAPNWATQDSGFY
UniProt P23116: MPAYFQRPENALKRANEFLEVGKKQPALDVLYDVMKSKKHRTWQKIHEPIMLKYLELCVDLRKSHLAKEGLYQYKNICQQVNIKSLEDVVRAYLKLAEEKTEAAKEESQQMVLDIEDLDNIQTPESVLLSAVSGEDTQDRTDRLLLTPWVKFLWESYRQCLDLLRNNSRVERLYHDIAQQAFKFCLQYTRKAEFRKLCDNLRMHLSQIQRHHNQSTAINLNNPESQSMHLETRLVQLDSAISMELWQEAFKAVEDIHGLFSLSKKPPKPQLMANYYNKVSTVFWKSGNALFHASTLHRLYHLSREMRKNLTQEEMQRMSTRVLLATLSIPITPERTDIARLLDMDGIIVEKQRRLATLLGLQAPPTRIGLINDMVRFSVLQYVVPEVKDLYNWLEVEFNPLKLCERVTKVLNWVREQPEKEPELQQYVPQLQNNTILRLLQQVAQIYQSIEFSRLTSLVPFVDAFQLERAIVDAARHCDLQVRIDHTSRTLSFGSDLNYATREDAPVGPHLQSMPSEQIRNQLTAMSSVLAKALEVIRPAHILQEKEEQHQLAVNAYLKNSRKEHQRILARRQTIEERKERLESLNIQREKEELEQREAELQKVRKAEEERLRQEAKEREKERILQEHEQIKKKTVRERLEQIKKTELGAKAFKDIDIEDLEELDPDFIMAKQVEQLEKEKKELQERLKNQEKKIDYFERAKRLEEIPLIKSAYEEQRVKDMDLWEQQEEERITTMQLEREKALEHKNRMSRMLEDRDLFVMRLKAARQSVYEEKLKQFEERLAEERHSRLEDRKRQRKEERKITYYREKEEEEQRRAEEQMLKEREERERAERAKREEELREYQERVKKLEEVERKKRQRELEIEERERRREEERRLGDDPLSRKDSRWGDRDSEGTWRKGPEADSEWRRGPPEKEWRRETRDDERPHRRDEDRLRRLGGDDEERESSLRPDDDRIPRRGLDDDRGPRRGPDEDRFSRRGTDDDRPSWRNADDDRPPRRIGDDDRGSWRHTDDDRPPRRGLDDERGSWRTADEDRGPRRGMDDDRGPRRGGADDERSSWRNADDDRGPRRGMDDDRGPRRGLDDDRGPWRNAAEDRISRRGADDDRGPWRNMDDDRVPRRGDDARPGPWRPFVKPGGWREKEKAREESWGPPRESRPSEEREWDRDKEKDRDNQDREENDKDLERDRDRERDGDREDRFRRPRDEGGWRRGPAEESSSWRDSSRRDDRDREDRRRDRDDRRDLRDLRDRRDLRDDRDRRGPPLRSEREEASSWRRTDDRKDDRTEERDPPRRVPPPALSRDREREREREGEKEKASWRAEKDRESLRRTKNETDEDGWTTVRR
UniProt Q6P5F9: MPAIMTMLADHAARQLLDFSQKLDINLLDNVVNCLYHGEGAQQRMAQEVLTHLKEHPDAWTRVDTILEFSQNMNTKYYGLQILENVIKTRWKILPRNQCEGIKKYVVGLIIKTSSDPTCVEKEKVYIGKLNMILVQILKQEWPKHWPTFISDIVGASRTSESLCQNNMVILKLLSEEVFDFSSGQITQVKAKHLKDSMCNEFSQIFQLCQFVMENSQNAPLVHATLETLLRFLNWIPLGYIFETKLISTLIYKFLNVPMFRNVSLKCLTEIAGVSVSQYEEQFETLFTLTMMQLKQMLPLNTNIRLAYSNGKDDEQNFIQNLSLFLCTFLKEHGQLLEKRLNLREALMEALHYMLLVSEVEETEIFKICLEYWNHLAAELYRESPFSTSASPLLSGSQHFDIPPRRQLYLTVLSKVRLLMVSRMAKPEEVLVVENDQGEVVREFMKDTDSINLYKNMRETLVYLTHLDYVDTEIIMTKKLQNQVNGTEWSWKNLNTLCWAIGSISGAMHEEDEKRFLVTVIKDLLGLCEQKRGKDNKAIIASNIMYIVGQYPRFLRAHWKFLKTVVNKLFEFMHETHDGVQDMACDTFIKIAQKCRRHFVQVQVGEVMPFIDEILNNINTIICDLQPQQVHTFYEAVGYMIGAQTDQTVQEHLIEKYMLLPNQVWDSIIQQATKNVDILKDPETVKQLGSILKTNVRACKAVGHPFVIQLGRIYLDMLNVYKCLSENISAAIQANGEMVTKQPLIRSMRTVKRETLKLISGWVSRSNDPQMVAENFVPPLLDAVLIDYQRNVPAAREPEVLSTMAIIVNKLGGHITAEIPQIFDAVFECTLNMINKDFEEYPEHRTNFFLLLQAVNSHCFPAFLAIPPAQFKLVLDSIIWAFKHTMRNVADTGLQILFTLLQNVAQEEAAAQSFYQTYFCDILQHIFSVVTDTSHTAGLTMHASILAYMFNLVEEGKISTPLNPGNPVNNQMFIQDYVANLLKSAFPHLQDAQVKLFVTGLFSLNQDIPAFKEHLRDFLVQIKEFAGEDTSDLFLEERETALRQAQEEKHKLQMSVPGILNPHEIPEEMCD
UniProt P62137: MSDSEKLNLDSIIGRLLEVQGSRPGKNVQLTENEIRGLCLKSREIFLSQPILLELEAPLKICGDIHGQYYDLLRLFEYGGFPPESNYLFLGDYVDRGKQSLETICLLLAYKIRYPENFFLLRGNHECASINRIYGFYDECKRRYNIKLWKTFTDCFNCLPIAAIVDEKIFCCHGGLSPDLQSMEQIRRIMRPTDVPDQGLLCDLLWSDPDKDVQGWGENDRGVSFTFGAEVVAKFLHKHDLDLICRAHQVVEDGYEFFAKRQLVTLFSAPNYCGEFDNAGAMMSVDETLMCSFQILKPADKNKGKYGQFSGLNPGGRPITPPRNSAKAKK
UniProt P34022: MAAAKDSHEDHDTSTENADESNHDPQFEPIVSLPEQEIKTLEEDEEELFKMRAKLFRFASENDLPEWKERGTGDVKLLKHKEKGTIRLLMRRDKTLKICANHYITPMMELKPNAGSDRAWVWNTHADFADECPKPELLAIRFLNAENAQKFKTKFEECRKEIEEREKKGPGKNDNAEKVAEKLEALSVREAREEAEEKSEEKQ

Each substance was assayed against Rif1^FLAG-HA2 (endogenous mouse Rif1 carrying a knock-in FLAG-HA2 tag) (mouse) (UniProt Q6PR54) (assay: affinity purification with mass spectrometry; anti-Flag M2 affinity gel IP of Rif1^FH from nuclear extracts of Rif1^FH/+ mouse ESCs (Benzonase, 0.2% Triton X-100), overnight 4 °C, washes with 150 mM NaCl and 0.1% Triton X-100, Flag-peptide elution; label-free quantitation against Rif1^+/+ ESCs).

Substance	binding
26S proteasome regulatory subunit 6A (from UniProt O88685 1-442)	binds
Deoxycytidine Kinase (from UniProt P43346 1-260) (enzyme)	binds
E3 ubiquitin-protein ligase NEDD4 (from UniProt P46935 1-887) (enzyme)	binds
Eukaryotic translation initiation factor subunit E (from UniProt P60229 1-445)	binds

Other lines, results leading:

binding	Substance
binds	Eukaryotic translation initiation factor subunit A (from UniProt P23116 1-1344)
binds	Exportin 1 (from UniProt Q6P5F9 1-1071)
no binding	PP1γ (endogenous) (from UniProt P63087 1-323) (enzyme)
binds	Protein phosphatase 1 subunit A (endogenous) (from UniProt P62137 1-330) (enzyme)
binds	Ran-specific GTPase-activating protein (from UniProt P34022 1-203)
